These are yes or no findings as the source states them, for the method shown. In cells and extracts the contact can be indirect. A result given as binding can be weak or reduced; the word gives no strength.
Biological target: T1, Fandango (CG6197) (Drosophila melanogaster (endogenous in embryos)) (UniProt A1Z9G2)
T1 sequence: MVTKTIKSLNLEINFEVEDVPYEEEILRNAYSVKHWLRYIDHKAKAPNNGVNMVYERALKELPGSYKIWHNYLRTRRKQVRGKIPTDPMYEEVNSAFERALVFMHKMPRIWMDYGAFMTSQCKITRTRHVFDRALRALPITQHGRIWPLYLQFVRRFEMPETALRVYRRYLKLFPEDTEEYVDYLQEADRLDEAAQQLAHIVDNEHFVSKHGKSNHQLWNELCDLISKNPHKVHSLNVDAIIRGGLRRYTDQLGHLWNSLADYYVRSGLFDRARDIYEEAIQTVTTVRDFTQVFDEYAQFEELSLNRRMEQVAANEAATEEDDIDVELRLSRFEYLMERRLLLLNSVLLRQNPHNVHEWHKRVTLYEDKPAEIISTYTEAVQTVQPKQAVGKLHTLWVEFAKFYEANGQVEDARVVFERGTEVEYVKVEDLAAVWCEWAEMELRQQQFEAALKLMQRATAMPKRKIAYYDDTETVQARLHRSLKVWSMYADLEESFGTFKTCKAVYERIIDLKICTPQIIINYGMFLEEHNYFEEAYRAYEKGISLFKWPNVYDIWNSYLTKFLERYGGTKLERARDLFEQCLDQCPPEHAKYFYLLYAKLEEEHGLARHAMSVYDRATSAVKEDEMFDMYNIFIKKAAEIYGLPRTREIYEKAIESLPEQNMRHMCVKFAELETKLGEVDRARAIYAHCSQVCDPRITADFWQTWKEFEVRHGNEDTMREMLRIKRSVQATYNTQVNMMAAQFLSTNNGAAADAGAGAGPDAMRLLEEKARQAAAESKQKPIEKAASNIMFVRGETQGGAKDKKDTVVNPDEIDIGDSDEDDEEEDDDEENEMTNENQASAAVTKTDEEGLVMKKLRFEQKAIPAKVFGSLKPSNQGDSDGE
Assay: co-IP; nuclear protein extracts of 0-3 hr wild-type (Oregon-R) embryos; 1 mg extract with rabbit anti-Prp19 (pre-immune serum as control) in HNEB2 buffer (100 mM NaCl, 2,5 mM MgCl2, 10 mM Tris-HCl pH 7,5, 0,5% Triton X-100), 1 hr at 4°C; Dynabeads Protein G; Western blot

The chains behind the UniProt entries cited, without tags or fusion partners. Where a name states a change or a piece, a line headed by the entry shows the natural chain unless it says otherwise.
UniProt Q9W0R0: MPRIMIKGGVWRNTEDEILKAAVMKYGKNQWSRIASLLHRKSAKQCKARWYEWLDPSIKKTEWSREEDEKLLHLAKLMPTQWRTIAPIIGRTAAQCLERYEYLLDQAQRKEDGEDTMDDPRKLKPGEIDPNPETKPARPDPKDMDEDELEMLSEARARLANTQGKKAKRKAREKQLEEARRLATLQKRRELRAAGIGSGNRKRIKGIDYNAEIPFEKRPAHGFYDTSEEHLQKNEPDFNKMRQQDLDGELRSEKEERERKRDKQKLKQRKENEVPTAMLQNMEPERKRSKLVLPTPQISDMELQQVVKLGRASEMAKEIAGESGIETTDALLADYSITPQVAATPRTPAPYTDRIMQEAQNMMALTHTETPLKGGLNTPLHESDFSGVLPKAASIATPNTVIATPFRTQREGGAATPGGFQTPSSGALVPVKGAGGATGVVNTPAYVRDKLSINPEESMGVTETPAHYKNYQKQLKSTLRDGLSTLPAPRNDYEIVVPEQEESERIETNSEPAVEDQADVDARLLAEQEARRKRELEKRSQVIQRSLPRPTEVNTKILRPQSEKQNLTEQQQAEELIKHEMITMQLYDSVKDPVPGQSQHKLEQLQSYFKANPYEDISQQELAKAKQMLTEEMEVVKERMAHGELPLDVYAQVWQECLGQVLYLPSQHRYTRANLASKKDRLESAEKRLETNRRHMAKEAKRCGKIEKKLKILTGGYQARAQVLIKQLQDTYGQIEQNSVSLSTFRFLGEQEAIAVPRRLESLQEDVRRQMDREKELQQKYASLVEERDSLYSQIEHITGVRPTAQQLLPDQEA

Row | binding | Substance
1 | binds | CDC5L (CG6905, cdc5-like) (from UniProt Q9W0R0)
2 | binds | ISY1 (CG9667)

— PMC3989599
